Test results published in patent publication US20140023611A1 (priority 2010, published 2014).

Chains of the proteins cited; added tags and fusions are not shown.
UniProt Q9JJ09, whole entry: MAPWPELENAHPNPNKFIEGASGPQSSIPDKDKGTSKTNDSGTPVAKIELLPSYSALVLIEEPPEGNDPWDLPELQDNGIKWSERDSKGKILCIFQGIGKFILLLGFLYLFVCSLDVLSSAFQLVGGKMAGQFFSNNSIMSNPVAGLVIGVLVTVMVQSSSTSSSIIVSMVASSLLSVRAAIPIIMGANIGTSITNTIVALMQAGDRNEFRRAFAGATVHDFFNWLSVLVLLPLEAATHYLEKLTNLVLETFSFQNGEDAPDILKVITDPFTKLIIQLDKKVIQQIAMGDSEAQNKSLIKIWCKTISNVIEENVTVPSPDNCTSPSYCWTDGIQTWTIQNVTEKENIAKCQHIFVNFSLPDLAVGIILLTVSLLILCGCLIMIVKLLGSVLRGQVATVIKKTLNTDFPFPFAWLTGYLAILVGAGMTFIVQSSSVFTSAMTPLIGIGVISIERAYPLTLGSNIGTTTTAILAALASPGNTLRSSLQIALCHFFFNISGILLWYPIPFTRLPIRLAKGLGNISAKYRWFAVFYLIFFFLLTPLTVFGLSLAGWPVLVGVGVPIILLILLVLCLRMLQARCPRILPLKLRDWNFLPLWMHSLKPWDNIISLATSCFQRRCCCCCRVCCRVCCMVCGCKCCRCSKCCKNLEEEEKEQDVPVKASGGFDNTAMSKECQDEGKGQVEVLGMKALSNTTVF

Molecular target: rat NaP2b (SLC34A2) (Rattus norvegicus, UniProt Q9JJ09)
Assay: Inhibition of NaP2b-mediated Pi (33P) uptake in transfected HEK293 cells, rat NaP2b
Conditions: 33P Pi uptake, 0.1 mM phosphate, value given as pIC50 range, tested form: TFA

O=C(O)CCSCc1cccc(C(=O)Nc2ccc(N3CCCCC3)cc2-c2cc(C(=O)N3CCCC3c3ccccc3)ccn2)c1 (stereo not shown) was tested, and the “pIC50 range for rat Nap2b” value was 4.5-5.

Structures were worked out from names or drawings and are uncertain.
